The source of these data is article PMC9531157.

By UniProt entry, the sequences of proteins in these tests, tags left out. Residues count along the entry.
UniProt O95831, residues 102-613: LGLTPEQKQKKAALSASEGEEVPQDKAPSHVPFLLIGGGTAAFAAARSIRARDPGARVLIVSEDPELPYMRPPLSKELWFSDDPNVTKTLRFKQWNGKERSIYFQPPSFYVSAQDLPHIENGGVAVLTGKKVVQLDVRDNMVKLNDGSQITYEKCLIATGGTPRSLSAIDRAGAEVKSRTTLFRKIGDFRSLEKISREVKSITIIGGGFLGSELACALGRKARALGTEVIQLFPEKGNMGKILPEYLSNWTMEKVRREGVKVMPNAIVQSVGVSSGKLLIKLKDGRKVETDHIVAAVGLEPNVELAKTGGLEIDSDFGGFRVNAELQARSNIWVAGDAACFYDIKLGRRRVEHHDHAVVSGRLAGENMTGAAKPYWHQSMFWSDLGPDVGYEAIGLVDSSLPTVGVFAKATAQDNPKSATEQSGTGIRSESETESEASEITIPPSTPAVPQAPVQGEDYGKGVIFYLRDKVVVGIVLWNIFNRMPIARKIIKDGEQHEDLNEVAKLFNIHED
UniProt P11142: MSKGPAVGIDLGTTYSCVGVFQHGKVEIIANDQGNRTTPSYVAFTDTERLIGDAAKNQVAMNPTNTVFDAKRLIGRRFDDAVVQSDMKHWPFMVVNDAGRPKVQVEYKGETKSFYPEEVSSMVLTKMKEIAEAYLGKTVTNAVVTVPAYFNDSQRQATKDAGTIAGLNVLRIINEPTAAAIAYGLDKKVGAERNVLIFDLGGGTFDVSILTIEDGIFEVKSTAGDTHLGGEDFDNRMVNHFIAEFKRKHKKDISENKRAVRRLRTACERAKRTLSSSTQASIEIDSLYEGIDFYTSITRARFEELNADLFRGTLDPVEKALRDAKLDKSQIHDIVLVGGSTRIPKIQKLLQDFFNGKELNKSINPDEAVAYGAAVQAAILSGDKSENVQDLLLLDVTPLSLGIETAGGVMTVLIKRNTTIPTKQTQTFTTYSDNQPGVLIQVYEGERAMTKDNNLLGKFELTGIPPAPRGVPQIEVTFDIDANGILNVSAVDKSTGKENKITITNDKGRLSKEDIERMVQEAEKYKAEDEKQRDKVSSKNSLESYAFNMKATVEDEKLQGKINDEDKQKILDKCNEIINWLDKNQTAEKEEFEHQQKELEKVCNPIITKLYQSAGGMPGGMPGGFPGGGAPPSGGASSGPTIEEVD

These are yes or no findings as the source states them, for the method shown. Binding seen in cells or lysates may run through a third protein. Some entries that bind do so weakly or less than the wild type.

In assay [1] the target is apoptosis-inducing factor (human (endogenous in Ca Ski and SiHa)) (UniProt O95831). As to the kind of experiment: condition: only cells treated with 10 µM SHetA2 for 24 hours; co-IP; as a1, but cells treated with 10 µM SHetA2 for 24 hours before lysis.
Assay [2] shares this target. As to the kind of experiment: co-IP; lysates (about 500 ug protein, M-PER) of vehicle-treated Ca Ski and SiHa cells incubated overnight at 4°C with agarose beads cross-linked to 10 ug hsc70 or AIF antibody (Pierce Crosslink IP kit); Western blot of the precipitates.
Assay [3] concerns the target heat shock cognate 70 (human (endogenous in Ca Ski and SiHa)) (UniProt P11142). In words: condition: only cells treated with 10 µM SHetA2 for 24 hours; co-IP; as a1, but cells treated with 10 µM SHetA2 for 24 hours before lysis.
Assay [4] has the same target. As to the kind of experiment: co-IP; lysates (about 500 ug protein, M-PER) of vehicle-treated Ca Ski and SiHa cells incubated overnight at 4°C with agarose beads cross-linked to 10 ug hsc70 or AIF antibody (Pierce Crosslink IP kit); Western blot of the precipitates. A general note: In western blotting, separated proteins are transferred to a membrane and probed.

Take “heat shock cognate 70 (from UniProt P11142 1-646)”: the binding entry in assay [1] is “no binding”; in assay [2], “binds”.
Turning to “apoptosis-inducing factor (from UniProt O95831 102-613)”, the values for the binding result in assay [3] and in assay [4] were “no binding” and “binds”, respectively.
